From publication PMC2770259

Amino acid sequences for entries named in this document (tags omitted).
UniProt Q9UT79: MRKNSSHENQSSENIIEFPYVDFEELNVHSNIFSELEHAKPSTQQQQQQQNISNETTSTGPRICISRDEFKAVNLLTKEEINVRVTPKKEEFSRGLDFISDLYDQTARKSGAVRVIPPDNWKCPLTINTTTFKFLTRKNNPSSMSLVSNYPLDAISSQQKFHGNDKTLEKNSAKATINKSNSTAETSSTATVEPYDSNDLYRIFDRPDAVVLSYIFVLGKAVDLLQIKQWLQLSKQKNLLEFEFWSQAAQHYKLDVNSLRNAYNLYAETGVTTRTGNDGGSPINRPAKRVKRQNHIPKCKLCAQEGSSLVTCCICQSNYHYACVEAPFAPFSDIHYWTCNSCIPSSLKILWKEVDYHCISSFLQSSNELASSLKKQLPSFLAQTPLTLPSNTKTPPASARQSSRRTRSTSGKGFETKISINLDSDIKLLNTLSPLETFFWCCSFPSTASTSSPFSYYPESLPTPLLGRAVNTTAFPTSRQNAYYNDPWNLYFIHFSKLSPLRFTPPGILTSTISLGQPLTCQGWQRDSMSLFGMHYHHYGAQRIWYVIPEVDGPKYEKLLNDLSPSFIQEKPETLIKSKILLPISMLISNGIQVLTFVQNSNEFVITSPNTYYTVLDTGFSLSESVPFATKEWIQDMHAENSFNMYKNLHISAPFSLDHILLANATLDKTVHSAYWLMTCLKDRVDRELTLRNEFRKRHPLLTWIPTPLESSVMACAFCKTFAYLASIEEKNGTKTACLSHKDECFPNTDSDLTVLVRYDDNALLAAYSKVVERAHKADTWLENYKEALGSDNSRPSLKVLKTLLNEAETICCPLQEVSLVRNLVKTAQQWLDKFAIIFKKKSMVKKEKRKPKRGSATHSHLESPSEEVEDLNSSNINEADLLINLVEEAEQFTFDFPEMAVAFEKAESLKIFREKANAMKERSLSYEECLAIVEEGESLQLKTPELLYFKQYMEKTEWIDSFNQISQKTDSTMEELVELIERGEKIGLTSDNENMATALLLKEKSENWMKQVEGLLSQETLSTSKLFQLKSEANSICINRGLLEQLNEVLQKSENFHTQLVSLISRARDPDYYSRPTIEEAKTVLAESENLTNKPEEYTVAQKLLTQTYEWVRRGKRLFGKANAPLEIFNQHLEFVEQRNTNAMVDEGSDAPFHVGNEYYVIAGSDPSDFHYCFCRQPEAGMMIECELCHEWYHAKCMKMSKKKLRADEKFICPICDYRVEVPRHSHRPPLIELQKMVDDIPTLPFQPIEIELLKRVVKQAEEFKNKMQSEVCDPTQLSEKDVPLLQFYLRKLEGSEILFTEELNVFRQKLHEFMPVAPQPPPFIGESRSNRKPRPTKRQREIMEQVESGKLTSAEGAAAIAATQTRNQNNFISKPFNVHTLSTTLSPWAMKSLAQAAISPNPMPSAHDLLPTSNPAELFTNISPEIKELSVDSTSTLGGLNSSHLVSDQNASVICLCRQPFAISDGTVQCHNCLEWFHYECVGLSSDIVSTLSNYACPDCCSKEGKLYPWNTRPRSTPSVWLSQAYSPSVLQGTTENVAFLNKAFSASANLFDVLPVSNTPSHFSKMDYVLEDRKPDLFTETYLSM

B1: Nap1.2 histone chaperone (protein, UniProt P78920 1-379)
chain: MSKGPGDFKKSWNGFAAQTPQNTPSSDVHLSKAALEKARQTLQSQLEDKSAHDEVSGLLRNNPAMLSMIEGRLSSLVGKSSGYIESLAPAVQNRITALKGLQKDCDAIQYEFRQKMLDLETKYEKKYQPIFSRRAEIIKGVSEPVDDELDHEEEIFQNNLPDPKGIPEFWLTCLHNVFLVGEMITPEDENVLRSLSDIRFTNLSGDVHGYKLEFEFDSNDYFTNKILTKTYYYKDDLSPSGEFLYDHAEGDKINWIKPEKNLTVRVETKKQRNRKTNQTRLVRTTVPNDSFFNFFSPPQLDDDESDDGLDDKTELLELDYQLGEVFKDQIIPLAIDCFLEEGDLSDFNQMDEEDSEDAYTDEEDLSSDDEEILSSEISD
B2: Kap114 (importin family protein) (protein, UniProt Q10297 1-993)
chain: MVESKIIKLLEQVQSADPNSRIQAELGLRDLEKYHDFAAKLTDIASSGASVPLRQGSLIYLQRYIVHHWSPLFEQFQDGPIPDENVKKHVRETLLHLLVSLDNFTLIKAVAYAVSLIANVDYPDEWPEVVPAVLHLLQSTNENSINASLDVLDELVDESLVEEQFFIIAPQLASILYQFIFSAPPNDSMRMLQARGIKLFRSCLELIEIYKETKAEHVRVFLEQILPPWMDMFSHKFEVSLVDDRQVILPDSCGYFCIMGEIAMTLTKLRELFPSKLTPYVVTFVELVWNIIEKLLDPYIREVVFSDGLDDSAFGDKYPIRYLVELLLFVSVALQSKFVQNLFVSNTVPVPPLPPCIPLLVQYTQLPKHQIEVYESDVSEYIANEFSMDFASDTVRGAAISVLSAFEEHTTLPIQQSLREMSATYILNNEINWIYQEALLYACCSVDAASDDTYDDYLDPIYEAIKVRIDYSDAPILLLSRFFLFIGYFSESTVVASQFFQIIMNNLVNALQVDTVQYAAMKAIERFCSVGKVKPILSLQPMILEVLSQYASKSSDEALVLLVEAISSAVKLDCAKAAELGNSVIPLLFNLVATNASDPYICGIIEDTFEDIIHAANNYESMCEITLPELLQVLNQEDPIMVNIGATLLSCLIRAGPSPLPNGFVGYVLPPVYKITQIHSGDTELLQLSQEILKGLLEKDTPQLLETEISGSSGFQYILFILHQLLDKESDDSACFLVGPILLELADHASQMVDLQSILLSCIKRLAIAEQPRFIQSIIYVFAKLIVKDSLGMMHFLTSSLLNEQGLTAFEVLMTVWCDNFVYFSNFKNISIICIAMTKIYSFDSPLLDSVQVKGELISHSNRIITRSQSKLHPEEYSYVSVGEKILRLLSEEFVSLSKDAIVEEVSDDGADDWDDGPISAETFGLSANDVNELSKDEFSGVDNSEDEDNTDLQFYLLEFFKEAMKSNLHNINEVVFRLPQEEQDALVQIKEK

Experiments:
Test in all cases: affinity purification with mass spectrometry; TAP-tag purification from S. pombe strains with TAP-tagged baits (Yaf9, Swc4, Swc2, Msc1, Swr1, H2A.Z/Pht1), LC-MS/MS and Coomassie stained PAGE gels; H2A.Z-TAP also in msc1Δ and swr1Δ strains; protocol in ref. 47
Yaf9 (S. pombe) [1] = target: T1, Yaf9 (S. pombe) (UniProt Q10319)
T1 sequence: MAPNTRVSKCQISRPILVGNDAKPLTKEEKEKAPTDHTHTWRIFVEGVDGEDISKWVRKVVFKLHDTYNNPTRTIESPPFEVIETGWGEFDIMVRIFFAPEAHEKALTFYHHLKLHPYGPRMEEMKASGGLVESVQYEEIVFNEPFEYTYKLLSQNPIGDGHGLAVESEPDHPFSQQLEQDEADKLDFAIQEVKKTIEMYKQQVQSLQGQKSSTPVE

Swc4 (S. pombe) [2] = target: T2, Swc4 (S. pombe) (UniProt O14308)
T2 sequence: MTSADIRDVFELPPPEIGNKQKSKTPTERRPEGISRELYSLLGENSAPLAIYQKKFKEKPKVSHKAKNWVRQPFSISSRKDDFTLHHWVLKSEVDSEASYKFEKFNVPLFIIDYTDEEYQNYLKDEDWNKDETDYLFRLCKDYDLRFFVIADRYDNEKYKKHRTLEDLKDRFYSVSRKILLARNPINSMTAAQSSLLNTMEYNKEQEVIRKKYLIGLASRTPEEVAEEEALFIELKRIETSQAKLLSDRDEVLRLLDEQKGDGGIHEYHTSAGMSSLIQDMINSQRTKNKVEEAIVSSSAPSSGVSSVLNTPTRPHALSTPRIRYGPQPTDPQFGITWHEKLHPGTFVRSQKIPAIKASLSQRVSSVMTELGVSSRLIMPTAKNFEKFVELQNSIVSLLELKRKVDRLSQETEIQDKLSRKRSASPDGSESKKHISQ

Swc2 (S. pombe) [3] = target: T3, Swc2 (S. pombe) (UniProt Q9P790)
T3 sequence: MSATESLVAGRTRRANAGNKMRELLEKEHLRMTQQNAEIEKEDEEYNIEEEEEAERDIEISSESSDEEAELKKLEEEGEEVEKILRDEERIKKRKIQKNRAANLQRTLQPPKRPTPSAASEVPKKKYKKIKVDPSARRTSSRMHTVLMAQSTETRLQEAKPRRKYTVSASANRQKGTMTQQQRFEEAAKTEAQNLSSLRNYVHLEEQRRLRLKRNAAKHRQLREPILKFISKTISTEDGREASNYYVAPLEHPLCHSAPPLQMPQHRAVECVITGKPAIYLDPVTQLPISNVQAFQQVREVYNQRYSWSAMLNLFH

Yaf9 (S. pombe) [4] = target: T1, Yaf9 (S. pombe); remark: listed apart in the source
[5] = target: Msc1 (JmjC-domain protein of the Lid/Jarid1 family) (S. pombe) (UniProt Q9UT79)
Swc4 (S. pombe) [6] = target: T2, Swc4 (S. pombe); remark: listed apart in the source
[7] = target: T4, Swr1 (catalytic subunit of the Swr1 complex) (S. pombe) (UniProt O13682)
T4 sequence: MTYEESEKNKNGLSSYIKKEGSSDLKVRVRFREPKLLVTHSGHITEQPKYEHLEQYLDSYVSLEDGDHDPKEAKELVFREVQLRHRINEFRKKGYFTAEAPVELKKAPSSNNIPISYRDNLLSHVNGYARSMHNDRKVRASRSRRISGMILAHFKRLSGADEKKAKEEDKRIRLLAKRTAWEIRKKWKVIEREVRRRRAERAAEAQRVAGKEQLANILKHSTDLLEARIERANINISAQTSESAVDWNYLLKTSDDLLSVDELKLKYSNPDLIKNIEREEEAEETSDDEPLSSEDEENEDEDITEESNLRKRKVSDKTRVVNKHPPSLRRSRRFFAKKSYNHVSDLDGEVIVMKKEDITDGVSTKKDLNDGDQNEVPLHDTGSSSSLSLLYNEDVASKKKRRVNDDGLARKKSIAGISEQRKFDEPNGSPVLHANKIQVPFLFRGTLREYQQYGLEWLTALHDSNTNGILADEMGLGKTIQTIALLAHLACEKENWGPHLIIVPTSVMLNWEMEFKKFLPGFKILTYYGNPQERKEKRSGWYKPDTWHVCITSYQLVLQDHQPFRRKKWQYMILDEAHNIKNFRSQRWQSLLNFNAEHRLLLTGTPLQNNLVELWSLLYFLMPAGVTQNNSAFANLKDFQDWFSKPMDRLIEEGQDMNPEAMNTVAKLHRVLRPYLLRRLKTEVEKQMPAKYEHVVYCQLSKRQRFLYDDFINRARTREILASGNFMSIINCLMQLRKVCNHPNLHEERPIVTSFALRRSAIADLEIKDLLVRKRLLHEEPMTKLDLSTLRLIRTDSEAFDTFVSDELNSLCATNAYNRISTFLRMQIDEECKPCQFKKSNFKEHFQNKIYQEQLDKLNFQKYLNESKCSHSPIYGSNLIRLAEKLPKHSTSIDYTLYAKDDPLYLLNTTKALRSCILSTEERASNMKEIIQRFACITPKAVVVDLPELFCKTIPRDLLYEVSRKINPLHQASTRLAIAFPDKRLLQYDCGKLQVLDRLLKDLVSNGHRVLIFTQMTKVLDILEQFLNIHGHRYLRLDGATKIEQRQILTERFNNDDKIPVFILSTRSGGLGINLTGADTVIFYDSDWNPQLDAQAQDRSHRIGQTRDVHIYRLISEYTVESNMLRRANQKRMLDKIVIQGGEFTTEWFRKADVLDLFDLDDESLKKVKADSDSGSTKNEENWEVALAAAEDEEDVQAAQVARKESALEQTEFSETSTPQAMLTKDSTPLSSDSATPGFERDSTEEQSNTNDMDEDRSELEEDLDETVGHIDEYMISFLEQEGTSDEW

Swc2 (S. pombe) [8] = target: T3, Swc2 (S. pombe); remark: listed apart in the source

Molecule	binding (Yaf9 (S. pombe) [1])	binding (Swc4 (S. pombe) [2])	binding (Swc2 (S. pombe) [3])	binding (Yaf9 (S. pombe) [4])	binding [5]	binding (Swc4 (S. pombe) [6])	binding [7]	binding (Swc2 (S. pombe) [8])
Msc1 (JmjC-domain protein of the Lid/Jarid1 family) (from UniProt Q9UT79 1-1588)	binds	binds	binds					
B1				no binding	no binding	no binding	no binding	no binding
B2				no binding	no binding	no binding	no binding	no binding

Where two headings read alike, the source gives them in different places. Results are given in words; binding and its absence hold for the method and conditions named. Binding seen in cells or lysates may run through a third protein. These calls come from enrichment with a bait or labelling near it, and not all partners need be listed. For some of these results: No binding means not detected with the bait. For some of these results: Sequences can lack the tags named with a protein.
